Data as given in the supplement of paper PMC4604168 (melanoma cell lines).
Some of the results follow. Single values are uncertain, as repeats are few or missing.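 The apoptosis fraction was the count of cleaved-PARP antibody-stained nuclei relative to all DNA-stained nuclei, imaged in 1,536-well plates. Screening doses were set so most cells survived, and baseline and induced cleaved-PARP levels vary greatly across cell lines.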

System: A2058
Test: cleaved PARP positive nuclei fraction relative to DMSO control; melanoma cells; higher = more apoptosis
Details: library dose: low library concentration; 72 h

SMILES	cleaved PARP positive nuclei fraction [%]
Cc1cc(Nc2cc(N3CCN(C)CC3)nc(Sc3ccc(NC(=O)C4CC4)cc3)n2)n[nH]1 [Tozasertib] + N#Cc1c(O)c2c(-c3ccc(-c4ccccc4O)cc3)csc2[nH]c1=O [A769662] (first compound 0.006 µM, partner dose 2 µM)	110
O=C(Nc1cc(C(F)(F)F)cc(C(F)(F)F)c1)c1cc(Cl)ccc1O + COc1ccc(COc2ccc(Cc3cnc(N)nc3N)cc2OC)cc1 [GW2580] (first compound 0.016 µM, partner dose 1 µM)	79.8
O=C(/C=C/c1cccnc1)NCCCCC1CCN(C(=O)c2ccccc2)CC1 + COc1cc(N2CCC(N3CCN(C)CC3)CC2)ccc1Nc1ncc(Cl)c(Nc2ccccc2S(=O)(=O)C(C)C)n1 [NVP-TAE684] (first compound 0.01 µM, partner dose 0.08 µM)	42.2
N#CC[C@H](C1CCCC1)n1cc(-c2ncnc3[nH]ccc23)cn1 [ruxolitinib] + Cn1cc(/C=C2\C(=O)Nc3cccnc32)c2ccccc21 [GW441756] (first compound 1 µM, partner dose 0.4 µM)	58.1
CCCCCCCCCCCCCCCCCCOP(=O)([O-])OC1CC[N+](C)(C)CC1 [Perifosine] + Oc1nc(-c2ccc(C(F)(F)F)cc2)nc2c1CSCC2 [XAV939] (first compound 0.4 µM, partner dose 2 µM)	180
O=C(/C=C/c1cccnc1)NCCCCC1CCN(C(=O)c2ccccc2)CC1 + Oc1nc(-c2ccc(C(F)(F)F)cc2)nc2c1CSCC2 [XAV939] (first compound 0.01 µM, partner dose 2 µM)	101
